Data from PubChem BioAssay AID2685 (National Center for Advancing Translational Sciences (NCATS), 2010).
The list shows a part of the results. The main result of the screen is listed elsewhere. These columns were measured beside it and carry no call. Compounds called inactive in the main read-out are mostly missing here. The note in brackets gives the kind of curve behind each potency; many fits are weak.

Assay: qHTS Assay for Lipid Storage Modulators in Drosophila S3 Cells;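 as to cell number change: cells counted by Cell Tracker Red CMTPX staining in the red channel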
Conditions: BODIPY lipid droplet fluorescence, 18-24 h; for cell number change: measured here: cell count max response, cells fed with added oleic acid
How it was run: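 Laser-scanning cytometry quantifies lipid droplet accumulation (500–530 nm total intensity; droplet/cell object ratio) in oleic acid-fed (400 uM added) Drosophila S3 cells treated with a concentration series. 20 uM Triacsin C defined 100% inhibition.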

[1] = measured here: cell number channel AC50, cells fed with added oleic acid
[2] = measured here: lipid fluorescence (Fed channel) AC50, cells fed with added oleic acid

CCOC(=O)CCc1c(C)c2ccc(OCc3ccc([N+](=O)[O-])cc3)cc2oc1=O
cell number change: 0.417%
AC50 [1]: 231 nM [falling, full curve]
AC50 [2]: 1840 nM [falling, partial curve]

Cc1ccc(OCC(=O)Nc2cc(S(=O)(=O)N3CCOCC3)ccc2Cl)c([N+](=O)[O-])n1
cell number change: -17%
AC50 [2]: 1030 nM [falling, full curve, poor fit]

COc1ccc(C(=O)COC(=O)C2CCC(=O)N2)cc1 (stereo unspecified)
cell number change: 4.96%
AC50 [1]: 2310 nM [falling, single point]
AC50 [2]: 3660 nM [falling, single point]

CCOc1ccc(CN(Cc2ccco2)C(c2cccs2)c2nnnn2C(C)(C)C)cc1 (stereo unspecified)
cell number change: -13.4%

CCOc1cc(C(=O)NCc2nnc(SCC(=O)OC)n2C)cc(OCC)c1OCC
cell number change: -33.1%
AC50 [1]: 32600 nM [falling, single point]
AC50 [2]: 29100 nM [falling, single point]

O=C(NCC1COc2ccccc2O1)c1cccc(S(=O)(=O)N2CCCCC2)c1 (stereo unspecified)
AC50 [2]: 16400 nM [falling, single point]

COCCOC(=O)c1c(C)nc(SCC(=O)Nc2cccc3ccccc23)c(C#N)c1-c1ccco1
cell number change: 26.3%
AC50 [1]: 2590 nM [rising, full curve, poor fit]
AC50 [2]: 3260 nM [rising, partial curve]

COc1ccc(CCNC(=O)C(C)OC(=O)c2ccco2)cc1OC (stereo unspecified)
AC50 [2]: 2060 nM [falling, full curve]

COCCn1c(SCC(=O)Nc2ccccc2C(F)(F)F)nc2ccccc2c1=O
cell number change: 18.8%
AC50 [2]: 29100 nM [rising, single point]

CC(c1ccccc1)n1cc(C(=O)NCc2ccncc2)nn1 (stereo unspecified)
cell number change: 5.25%
AC50 [2]: 1030 nM [falling, partial curve]

Cc1cnn(Cc2ccccc2)c1N
cell number change: -2.55%
AC50 [2]: 1840 nM [falling, partial curve]

O=C(Nc1ccc(S(=O)(=O)Nc2nccs2)cc1)c1c(F)c(F)c(F)c(F)c1F
cell number change: -31.5%
AC50 [1]: 1160 nM [falling, single point]
AC50 [2]: 29100 nM [falling, single point]

Cc1ccc([C@@H]2[C@@H]3C(=O)N(C)C(=O)[C@@H]3[C@]3(C)C(=O)N(Cc4ccccn4)CC(=O)N23)o1
cell number change: 5.5%
AC50 [2]: 32600 nM [rising, single point]

O=C(COc1nncc2ccccc12)NCCC1=CCCCC1
cell number change: 1.06%
AC50 [1]: 731 nM [falling, full curve, poor fit]
AC50 [2]: 1640 nM [rising, partial curve]

Cc1ccc(NC(=O)CSc2nnc(C3COc4ccccc4O3)o2)c(Cl)c1 (stereo unspecified)
cell number change: 16.2%
AC50 [2]: 1840 nM [rising, full curve]

Cc1cccc(C)c1NC(=O)CNC(=O)Cc1ccc(Br)cc1
cell number change: 40.6%
AC50 [1]: 3660 nM [falling, single point]
AC50 [2]: 23100 nM [rising, single point]

COc1ccc2cc(C(=O)C3CCCN(C(=O)c4cncs4)C3)ccc2c1 (stereo unspecified)
cell number change: 25.2%
AC50 [1]: 6510 nM [rising, single point]

Cc1ccc(NC(=O)c2ccc(NS(=O)(=O)c3ccc4[nH]c(=O)[nH]c4c3)cc2)nc1
cell number change: -30.6%
AC50 [1]: 4610 nM [falling, full curve, poor fit]

COc1ccc2[nH]c(=O)c(CN(CC3CCCO3)C(=O)Nc3ccccc3OC)cc2c1 (stereo unspecified)
cell number change: -3.78%
AC50 [2]: 1840 nM [rising, full curve]

Cc1ccc(SC[C@H](CC(C)C)N2CCN(CCc3ccccc3)CCC2=O)cc1
cell number change: -17.7%
AC50 [2]: 23100 nM [falling, partial curve]

COc1ccc2[nH]c(C(O)(Cc3cccnc3)Cc3cccnc3)cc2c1
cell number change: 18.6%
AC50 [2]: 1460 nM [rising, partial curve]

Cc1cccn2c(=O)c3cc(C(=O)NC4CCCCC4C)n(C)c3nc12 (stereo unspecified)
cell number change: 6.42%
AC50 [2]: 920 nM [falling, single point]

O=C(CC1SC(=Nc2ccc(OC(F)F)cc2)N(CCN2CCOCC2)C1=O)Nc1ccc(F)cc1F (stereo unspecified)
cell number change: 21.6%
AC50 [1]: 6510 nM [rising, partial curve, poor fit]

CCN1C(=O)[C@H]2[C@@H](c3ccc(C)cc3)N3C(=O)N(c4ccc(C)cc4)C(=O)[C@@]3(CC)[C@H]2C1=O
cell number change: 5.87%
AC50 [2]: 32600 nM [rising, single point]

CCc1nn(C(C)C(=O)NCCc2ccc(OC)c(OC)c2)c(=O)c2cc3occc3n12 (stereo unspecified)
cell number change: -4.87%
AC50 [2]: 2310 nM [rising, partial curve]

O=C(NCc1ccco1)c1cccc(NC(=O)c2ccccc2)c1
AC50 [1]: 1300 nM [rising, full curve]
AC50 [2]: 580 nM [rising, single point]

CCOc1ccc(C(=O)Nc2cc(S(=O)(=O)Nc3ccccc3Cl)ccc2N2CCOCC2)cc1
cell number change: -13.5%
AC50 [2]: 2590 nM [rising, full curve]

CCNC(=O)c1ccccc1-c1nc(-c2ccccc2Cl)no1
cell number change: -1.45%
AC50 [2]: 5800 nM [rising, single point]

N#CC1=C(N)OC2=C(C(=O)CCC2)C1c1ccc(OC(=O)N2CCOCC2)cc1 (stereo unspecified)
cell number change: 2.9%
AC50 [1]: 580 nM [falling, full curve]

Cc1ccc2[nH]c(=O)c(CN(Cc3cccs3)Cc3nnnn3Cc3ccccc3)cc2c1
cell number change: -4.28%

O=C(N/N=C/c1ccncc1)/C(=C/c1ccccc1)NC(=O)c1ccccc1
AC50 [2]: 517 nM [rising, single point]

O=c1[nH]c2ccccc2n1C1=CCCC1
cell number change: 1.38%
AC50 [2]: 29100 nM [rising, single point]

O=C(CSc1ncn[nH]1)Nc1ccc(Br)cc1F
cell number change: -30.5%
AC50 [1]: 82 nM [falling, full curve, poor fit]

Cc1cccc(N(C(=O)c2csnn2)C(C(=O)NC2CCCC2)c2ccncc2)c1 (stereo unspecified)
cell number change: 9.24%

C/C(=N\NC(=O)c1ccc(F)cc1)c1ccc(NC(=O)Cc2ccccc2)cc1
cell number change: -7.65%
AC50 [2]: 6510 nM [rising, single point]
